The experiment is described as follows: qHTS Assay for Lipid Storage Modulators in Drosophila S3 Cells.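 As to cell number change: cells counted by Cell Tracker Red CMTPX staining in the red channel.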 To be noted: BODIPY lipid droplet fluorescence, 18-24 h; for cell number change: measured here: cell count max response, cells fed with added oleic acid. Summed up: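 Drosophila S3 cells loaded with oleic acid (400 uM, as added) and compounds at several concentrations; lipid droplets imaged by 488-nm laser-scanning cytometry, 500–530 nm intensity and object ratio to cell channel. Percent activity normalized to 20 uM Triacsin C.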

The mark [1] stands for this setting: measured here: cell number channel AC50, cells fed with added oleic acid.
Where [2] appears, read: measured here: lipid fluorescence (Fed channel) AC50, cells fed with added oleic acid.

The list shows a part of the results. Further columns of the screen follow, without active or inactive calls. Most of these compounds were active or inconclusive in the main read-out, so they are no random draw. Potencies come from curve fits of mixed quality, noted in brackets.

Take `O=C(NCCN1CCN(C(=O)c2cccs2)CC1)C(=O)Nc1ccc(Br)cc1`: the AC50 was 0.651 µM [rising, partial curve, poor fit] under setting [1] and 8.2 µM [rising, partial curve] under setting [2]. As to `COc1ccccc1CC(=O)Nc1ccc([N+](=O)[O-])cc1OC`, the cell number change was 14.3%.

In the case of `CCOc1ccc2nc(NC(=O)C34CC5CC(CC(NC(C)=O)(C5)C3)C4)sc2c1`, the cell number change amounted to 42.7%. The AC50 under setting [1] is 29.1 µM [rising, single point]. Consider `CCCc1nc2ccccc2c(C(=O)OCC(=O)c2ccc3c(c2)NC(=O)CO3)c1CC`, for which the AC50 under setting [2] was 6.51 µM [falling, single point].

Take `COCC(C)n1c(C)cc(C(=O)COC(=O)C2=NN(c3ccccc3)C(=O)CC2)c1C` (stereo not drawn): the cell number change worked out at 21.2%. Besides, the AC50 under setting [2] is 6.51 µM [falling, single point]. Consider `COc1ccc(CCNC(=O)c2ccc3c(c2)SC2=NS(=O)(=O)CCN23)cc1`, for which the concentration at half-maximal activity (AC50) under setting [2] is 2.59 µM [rising, full curve, poor fit]. On to `CCOC(=O)c1ccc2ncc(C(=O)OCC)c(Nc3ccc(N4CCOCC4)cc3)c2c1`, for which the cell number change came out at 0.801%. Besides, the concentration at half-maximal activity (AC50) under setting [1] was 3.66 µM [falling, single point]. Moreover, the concentration at half-maximal activity (AC50) under setting [2] is 4.61 µM [falling, partial curve]. For `COc1ccc(C2C(C(=O)c3ccccc3)=C(C)Nc3nc4ccccc4n32)c(OC)c1` (stereo not drawn), the cell number change is -9.89%. In addition, the AC50 under setting [2] is 0.92 µM [rising, full curve, poor fit]. Take `COc1ccc(CN2CCc3ccc(NC(=O)c4ccncc4)cc3C2)c(F)c1`: the AC50 under setting [1] is 0.291 µM [rising, partial curve].

Turning to `COc1ccc(CCNC(=O)c2ccccc2NC(=O)C2=C(C)OCCS2)cc1OC`, the cell number change was determined as 10.6%. Also, under setting [2], the half-maximal activity concentration (AC50) was 25.9 µM [rising, partial curve]. `O=C(NCCCc1ccccc1)c1ccc(CS(=O)Cc2ccccc2Cl)o1` (stereo not drawn): the cell number change worked out at 10.7%. Besides, under setting [2], the half-maximal activity concentration (AC50) was 6.51 µM [rising, single point]. `CC(=O)N(C(C)=O)N1C(=O)C2C3c4ccccc4C(c4ccccc43)C2C1=O` (stereo not drawn): the cell number change was -21.3%. As to `Cc1cc(C)cc(NC(=O)CSc2ccc(-c3cccs3)nn2)c1`, the cell number change was -27.8%. Further, the AC50 under setting [2] was 25.9 µM [falling, single point].

Consider `CCN(C(=O)c1cc2c(=O)[nH]c3ccc(C)cc3c2s1)c1ccccc1F`, for which the AC50 under setting [2] was 20.6 µM [rising, single point]. Consider `CS(=O)(=O)N(CCc1ccccc1)CC(=O)N1CCN(c2ccc(F)cc2)CC1`, for which the cell number change is -11.7%. Further, under setting [2], the AC50 was 29.1 µM [falling, single point]. `S=C(NCC1CCCO1)Nc1cc(Cl)c(Cl)cc1Cl` (stereo not drawn): the AC50 by setting is: under setting [1], 6.51 µM [rising, single point]; under setting [2], 6.51 µM [rising, single point].

As for `COc1cccc(OC)c1C(=O)Nc1ccc2c(c1)N(S(=O)(=O)c1cccs1)CCC2`, the cell number change was -2.99%. The AC50 under setting [2] is 0.82 µM [rising, full curve, poor fit]. With `Cc1ccc(S(=O)(=O)N2CCCC(C(=O)NCCc3ccc4c(c3)OCO4)C2)cc1` (stereo not drawn), the cell number change was 31%. Moreover, under setting [1], the AC50 was 1.84 µM [rising, full curve]. For the same compound, under setting [2], the AC50 is 5.17 µM [rising, partial curve]. Turning to `CCCCOC(=O)CSCC(=O)Nc1cc(C)on1`, the cell number change was 23.2%.

Regarding `CCCCN(CCCC)S(=O)(=O)c1ccc(NC(=O)CN2CCOCC2)cc1`, the cell number change was -32.1%. Further, the AC50 under setting [1] was 29.1 µM [falling, single point].

Turning to `COc1ccc(NC(=O)c2sc(NC(=O)C3CC3)nc2C)cc1`, the cell number change is 10.6%. Moreover, under setting [2], the AC50 is 14.6 µM [falling, single point].

In the case of `CCc1cc(C(=O)COc2ccccc2F)c(O)cc1O`, the cell number change is -195%. Moreover, under setting [1], the AC50 was 29.1 µM [falling, single point]. With `COc1ccc(C(=O)N/C(=C\c2ccccc2)C(=O)Nc2ccc(C(=O)O)cc2)cc1`, the cell number change worked out at 30.3%. In addition, the concentration at half-maximal activity (AC50) under setting [1] was 10.3 µM [rising, partial curve]. `CC(=O)c1ccc(N2CCN(C(=O)C3CCN(S(=O)(=O)c4ccc5c(c4)CC(C)N5C(=O)C4CC4)CC3)CC2)cc1` (stereo not drawn): the cell number change is -27.4%. Further, the AC50 under setting [2] is 23.1 µM [falling, single point].

With `O=C(O)C1C2CC2CN1C(=O)c1ccc(Cl)cc1Cl` (stereo not drawn), the cell number change is -21.8%. In addition, the concentration at half-maximal activity (AC50) under setting [2] was 14.6 µM [rising, partial curve]. As for `Cc1ccccc1C(=O)N1CCC(C(=O)Nc2nccs2)CC1`, the cell number change was 6.49%. Also, the AC50 under setting [1] was 2.59 µM [rising, partial curve]. Regarding `Cn1c(=O)c2ccccc2n(Cc2ccccc2Cl)c1=O`, the cell number change was -5.26%. For `Cc1ccc(N2C(=O)N3[C@H](c4ccc(F)cc4)[C@@H]4C(=O)N(C5CCCCC5)C(=O)[C@@H]4[C@]3(Cc3ccccc3)C2=O)cc1`, the cell number change was 41.7%. Moreover, under setting [1], the AC50 is 18.4 µM [rising, single point]. Consider `O=c1c2ccccc2cnn1CCOc1cccc(Br)c1`, for which the cell number change was 37.6%. Besides, the AC50 under setting [1] is 18.4 µM [rising, single point]. Also, the AC50 under setting [2] is 4.61 µM [rising, full curve, poor fit].

As for `O=[N+]([O-])c1c(Nc2ccccn2)cc(Cl)c2nonc12`, the cell number change was -64%. For the same compound, the AC50 under setting [1] is 0.0146 µM [falling, full curve]. Besides, under setting [2], the AC50 was 14.6 µM [falling, partial curve, poor fit]. As to `O=C(OCn1nnc2ccccc2c1=O)C1COc2ccccc2O1` (stereo not drawn), the cell number change is -14.7%. Under setting [2], the AC50 is 29.1 µM [falling, partial curve, poor fit]. With `Cc1cc(=O)c(C(=O)O)nn1-c1ccccc1Cl`, the cell number change is 24.2%. Besides, under setting [2], the AC50 was 0.461 µM [falling, partial curve]. With `Cc1ccc(-c2cc(-c3ccccc3)c(C#N)c(N)n2)o1`, the AC50 under setting [1] was 2.91 µM [rising, single point]. `Cc1ccccc1NC(=O)Cn1cnc2c(oc3nc4c(cc32)COC(C)(C)C4)c1=O`: the cell number change was 17.2%. As for `O=[N+]([O-])c1ccccc1NCCNS(=O)(=O)c1ccc(Cl)cc1`, the cell number change came to 19.9%. Further, the AC50 under setting [2] is 29.1 µM [rising, single point]. With `COc1ccc(CC(CC(=O)O)C(=O)Nc2ccc(Cl)c(Cl)c2)cc1` (stereo not drawn), the cell number change worked out at 9.59%. In addition, under setting [2], the AC50 is 10.3 µM [rising, partial curve].

As for `O=C(Nc1ccccn1)c1ccco1`, the cell number change is -6.14%. In the case of `Cn1c(SCC(=O)Nc2nc(C(C)(C)C)cs2)nnc1C1CC1`, the cell number change is -48%. Under setting [1], the AC50 was 11.6 µM [falling, partial curve, poor fit]. Also, under setting [2], the AC50 is 9.2 µM [falling, partial curve]. As for `CC(=O)/C=C(\C)Nc1ccc(-c2cnc(-c3ccccc3)o2)cc1`, the cell number change was -25%.

As for `Cc1ccc(N(CCC#N)C(=O)CCl)cc1C`, the cell number change is -7.97%. Besides, the AC50 under setting [2] was 23.1 µM [falling, single point].

For the compound `CN1CCN(c2ccccc2NC(=O)c2ccc3c(c2)OCCO3)CC1`, the cell number change was 17%. As to `O=C(Nc1ccc(F)cc1)c1cccc2c1C(=O)N(Cc1ccccn1)C2`, the cell number change was 63.3%. Moreover, the concentration at half-maximal activity (AC50) under setting [1] was 1.84 µM [rising, full curve]. Further, under setting [2], the AC50 was 0.259 µM [rising, full curve]. In the case of `CC(=O)N(c1ccccc1Cl)S(=O)(=O)c1ccc(Cl)cc1`, the cell number change came out at 26.1%. Further, the AC50 under setting [2] is 1.03 µM [rising, single point]. In the case of `Cc1ccc(NC(=O)CN(C)Cc2cc(=O)n3ccsc3n2)cc1`, the cell number change was 18%. For the same compound, under setting [2], the AC50 was 20.6 µM [rising, single point]. With `COc1ccc(NC(=O)CN(C)C(=O)C2=COCCO2)cc1`, the cell number change is -19.2%. The AC50 under setting [2] was 3.66 µM [falling, full curve].

With `Cc1ccc(S(=O)(=O)c2nc(-c3ccccc3F)oc2N2CC(C)OC(C)C2)cc1` (stereo not drawn), the AC50 under setting [1] is 4.11 µM [falling, single point]. For `O=C(OCc1ccccc1)N1CCc2ccccc21`, the cell number change is -10.3%. Also, the AC50 under setting [2] was 29.1 µM [rising, partial curve, poor fit]. For the compound `O=S(=O)(Nc1ccc(Cl)cc1)c1cccc2cccnc12`, the cell number change is 6.14%. Further, the AC50 under setting [2] is 6.51 µM [falling, single point]. For the compound `O=C(COc1ccc(Cl)cc1)NCCCNC(=O)c1cccnc1`, the cell number change is -25.7%. Moreover, the AC50 under setting [2] was 0.206 µM [falling, single point]. In the case of `CC(C)CCNC(=O)C1CCN(S(=O)(=O)c2ccc3c(c2)CCC(=O)N3)CC1`, the cell number change is -78.2%. For the same compound, the AC50 under setting [1] was 29.1 µM [falling, single point]. For the compound `CCOc1ccc(CNC(=O)C2CCCN(S(C)(=O)=O)C2)cc1OC` (stereo not drawn), the cell number change amounted to 0.78%. Under setting [2], the AC50 is 0.366 µM [falling, full curve, poor fit]. On to `O=C(Nc1ccc(SC(F)F)cc1)c1cc(-c2ccncc2)nc2ccccc12`, for which the cell number change was -6.14%. Besides, the AC50 under setting [2] is 0.0206 µM [rising, single point]. `CCOC(=O)c1[nH]c2ccc(Br)cc2c1NC(=O)CCN1CCC(C)CC1`: under setting [2], the AC50 is 29.1 µM [rising, single point].

For `C=CCn1c(SCC(=O)Nc2c(C)cccc2C)nnc1-c1cnccn1`, the cell number change was found to be 59.8%. For the same compound, the AC50 under setting [1] was 0.291 µM [rising, full curve]. Besides, the AC50 under setting [2] is 0.146 µM [rising, full curve]. Take `CC(C)(C)OC(=O)N1CC=C2C(C#N)=C(N)C(C#N)(C#N)[C@H](c3cccnc3)[C@H]2C1`: the AC50 under setting [2] is 0.164 µM [rising, full curve, poor fit]. Take `O=C(O)CCC(=O)NNC(=O)CCCOc1ccc(Cl)cc1Cl`: the cell number change is -9.27%. Besides, the AC50 under setting [1] was 1.3 µM [falling, single point]. The half-maximal activity concentration (AC50) under setting [2] is 3.66 µM [falling, partial curve].

Take `CSc1nnc(C2CCN(CC(=O)Nc3ccccc3N3CCOCC3)CC2)n1C`: the cell number change was -10.3%. For the same compound, the concentration at half-maximal activity (AC50) under setting [2] was 0.116 µM [rising, single point]. Turning to `CCOc1cc2nc3c4ccccc4n(C)c3nc2cc1OCC`, the cell number change was determined as 17.2%. For the same compound, the AC50 under setting [2] is 0.291 µM [rising, partial curve, poor fit].

In the case of `Cc1c(-c2cccs2)[n+](=O)c2c(n1[O-])CCCCC2`, the cell number change turned out to be 0.0324%. The concentration at half-maximal activity (AC50) under setting [2] was 23.1 µM [rising, single point].

As to `CN(C(=O)CSc1ncnc2sccc12)C1CCCCC1`, the cell number change is 3.38%.

Regarding `Cc1oc(C(C)(C)C)cc1C(=O)NCC(=O)NCC(=O)O`, the cell number change came out at 87.8%. The AC50 under setting [1] is 29.1 µM [rising, single point].

A word on the AC50: it is the midpoint of the concentration-response curve, whichever way the signal moves. A low value points to activity at low concentration.

The record behind these values is PubChem BioAssay AID2685 (National Center for Advancing Translational Sciences (NCATS), 2010).
